Source: article PMC6715695
Results are given in words; binding and its absence hold for the method and conditions named. In cells and extracts the contact can be indirect. Some results given as binding are weak or reduced against the parent protein; the word gives no strength.

Chains of the proteins cited; added tags and fusions are not shown.
UniProt O60563: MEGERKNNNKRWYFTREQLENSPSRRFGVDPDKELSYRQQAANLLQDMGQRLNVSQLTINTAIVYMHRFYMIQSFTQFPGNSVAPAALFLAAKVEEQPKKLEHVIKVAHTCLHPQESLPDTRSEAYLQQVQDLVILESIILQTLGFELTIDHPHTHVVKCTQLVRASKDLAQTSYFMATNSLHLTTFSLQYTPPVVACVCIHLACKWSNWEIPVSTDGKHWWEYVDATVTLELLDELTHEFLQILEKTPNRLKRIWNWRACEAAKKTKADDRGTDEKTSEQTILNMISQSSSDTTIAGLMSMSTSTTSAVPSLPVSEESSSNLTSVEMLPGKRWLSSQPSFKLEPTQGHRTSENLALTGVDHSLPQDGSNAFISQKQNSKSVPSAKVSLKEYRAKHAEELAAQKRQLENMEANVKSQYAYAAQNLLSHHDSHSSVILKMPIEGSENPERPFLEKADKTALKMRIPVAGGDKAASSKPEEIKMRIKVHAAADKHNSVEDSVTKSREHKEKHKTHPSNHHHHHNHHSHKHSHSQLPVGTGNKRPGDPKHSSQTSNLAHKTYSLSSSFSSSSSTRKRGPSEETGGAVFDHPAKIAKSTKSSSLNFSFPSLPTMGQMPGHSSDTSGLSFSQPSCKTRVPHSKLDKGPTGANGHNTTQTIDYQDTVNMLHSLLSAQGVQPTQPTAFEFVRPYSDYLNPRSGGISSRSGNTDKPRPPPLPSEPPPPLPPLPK
UniProt O94992: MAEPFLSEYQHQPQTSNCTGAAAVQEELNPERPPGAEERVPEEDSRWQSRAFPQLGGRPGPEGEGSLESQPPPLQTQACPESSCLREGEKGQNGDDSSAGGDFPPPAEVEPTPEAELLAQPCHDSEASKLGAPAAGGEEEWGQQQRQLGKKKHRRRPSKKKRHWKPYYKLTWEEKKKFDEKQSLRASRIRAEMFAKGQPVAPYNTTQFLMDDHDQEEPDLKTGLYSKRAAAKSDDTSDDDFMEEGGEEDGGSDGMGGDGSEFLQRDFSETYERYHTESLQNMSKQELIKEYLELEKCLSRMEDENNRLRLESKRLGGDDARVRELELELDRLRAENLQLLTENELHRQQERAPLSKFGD

Target: Cyclin-T1 (human (endogenous in primary skin fibroblasts)) (UniProt O60563)
Assay: co-IP; endogenous Cyclin-T1 immunoprecipitated (anti-Cyclin-T1, Protein A-Agarose, 4 h, 4 °C) from fibroblast lysates of the patient (MEPCE haploinsufficient), the patient's parent and control 1; buffer 120 mM NaCl, 50 mM Tris-HCl pH 8.0, 0.5% NP-40, 1 mM EDTA; HEXIM1 detected by immunoblot; co-precipitated HEXIM1 in patient cells reduced to ~74% of control 1 and ~63% of the parent

binding: binds
Substance: HEXIM1 (from UniProt O94992 1-359)
